Assay results taken from PubChem BioAssay AID2685 (National Center for Advancing Translational Sciences (NCATS), 2010).
The list shows a part of the results. These are further read-outs of the screen, such as a control signal, another cell line or another target. No call is given for them. Most of these compounds were active or inconclusive in the main read-out, so they are no random draw. Words in brackets tell the shape of the fitted curve; partial curves, single points and poor fits give uncertain potencies.

Experiment: qHTS Assay for Lipid Storage Modulators in Drosophila S3 Cells;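 for cell number change: cells counted by Cell Tracker Red CMTPX staining in the red channel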
Conditions: BODIPY lipid droplet fluorescence, 18-24 h; for cell number change: measured here: cell count max response, cells fed with added oleic acid
In short: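 Drosophila S3 cells got compounds at several concentrations plus oleic acid (400 uM solution). Laser-scanning cytometry with 488 nm excitation read lipid droplets at 500-530 nm and cells at 575-640 nm. Percent activity was relative to 20 uM Triacsin C.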

[1] = measured here: lipid fluorescence (Fed channel) AC50, cells fed with added oleic acid
[2] = measured here: cell number channel AC50, cells fed with added oleic acid

SMILES	cell number change	AC50 [1]	AC50 [2]
COCCCNC(=O)c1ccc2c(=O)n(Cc3ccc4c(c3)OCO4)c(=S)[nH]c2c1	-24%	0.58 µM [rising, single point]	–
CC(C)Cc1nnc(NC(=O)CCC(=O)N2CCOCC2)s1	2.35%	20.6 µM [falling, partial curve]	–
COc1ccc(-c2csc(NC(=O)CS(=O)(=O)c3ccccc3)n2)cc1	51.9%	4.61 µM [rising, partial curve]	3.26 µM [rising, partial curve]
Cc1cc(C(=O)CSc2nc3ccccc3o2)c(C)n1CC1CCCO1 (stereo not drawn)	29.8%	–	–
O=C(CN1CCOCC1)Nc1cc([N+](=O)[O-])ccc1Cl	23.5%	20.6 µM [rising, single point]	–
COc1cc(/C=N/NC(=S)NCc2ccccc2)ccc1OCC#N	-2.69%	2.31 µM [rising, partial curve]	–
O=C1CCCN1CC(=O)N1CCCC(Nc2cccc(F)c2)C1 (stereo not drawn)	-9.41%	–	6.51 µM [falling, single point]
COc1ccc(-c2ccnc(-c3ccncc3)n2)cc1	12%	4.61 µM [rising, single point]	–
CC(=O)c1ccc(OCc2cc(C(=O)NC(C)c3cnn(C)c3)no2)cc1 (stereo not drawn)	–	6.51 µM [falling, single point]	–
COc1ccc(OC)c(C(=O)Cn2cnc3ccccc3c2=O)c1	-22.9%	–	–
O=C(CNc1cc(S(=O)(=O)N2CCOCC2)ccc1N1CCCC1)N1CCc2ccccc21	125%	–	–
COc1cccc(NC(=O)Cn2c(=O)oc3ccccc32)c1	4.89%	–	–
O=C(NCCO)c1ccc(Cl)c(Cl)c1	–	23.1 µM [falling, single point]	–
CCc1nnc(NC(=O)C(C)Sc2ccccc2)s1 (stereo not drawn)	21.7%	25.9 µM [rising, single point]	–
COc1ccc(C(=O)Nc2ncccc2C)cc1S(=O)(=O)N1CCOCC1	-21.1%	0.00461 µM [falling, full curve, poor fit]	–
Cc1ccc2occ(C3NC(C(=O)O)CS3)c(=O)c2c1 (stereo not drawn)	23.1%	23.1 µM [rising, single point]	–
CCOC(=O)C(NC(C)=O)C(=O)Nc1ccc(C(C)C)cc1 (stereo not drawn)	36.8%	0.058 µM [falling, full curve, poor fit]	–
CCCc1nc(-c2ccc(-c3ccc(F)cc3)cc2)no1	-10.7%	0.517 µM [falling, full curve, poor fit]	–
Cc1nc(N2CCOCC2)c2cc(-c3ccccc3)sc2n1	–	16.4 µM [rising, partial curve]	–
CN(CCC#N)C(=O)COC(=O)C1c2ccccc2Oc2ccccc21	13%	6.51 µM [rising, single point]	–
Cc1ccc2c(c1)CCCN2C(=O)c1ccoc1C	-4.75%	0.517 µM [falling, full curve]	–

SMILES	cell number change	AC50 [1]	AC50 [2]
Cn1c(N)c(C(=O)COC(=O)CCC(=O)c2cccs2)c(=O)n(C)c1=O	-8.5%	2.31 µM [rising, single point]	–
Cc1nnc(SCC(=O)NCc2ccc3c(c2)OCO3)[nH]c1=O	2.24%	–	–
COc1ccc(OCCCC(=O)NCCc2ccc(OC)c(OC)c2)cc1	–	0.651 µM [falling, full curve, poor fit]	2.06 µM [falling, partial curve, poor fit]
CS(=O)(=O)Nc1ccc(C(=O)NC2CC3CCC2C3)cc1 (stereo not drawn)	57.3%	–	20.6 µM [rising, partial curve]
NC(Cc1cccc2nsnc12)C(=O)O (stereo not drawn)	4.09%	5.17 µM [falling, single point]	–
COc1cc(OC)cc(C(=O)NNC(=O)CCCOc2ccccc2)c1	-34.5%	29.1 µM [falling, single point]	29.1 µM [falling, single point]
COc1ccc2nc(C)cc(N3CC(C)OC(C)C3)c2c1 (stereo not drawn)	26.2%	0.116 µM [falling, partial curve, poor fit]	–
CC1CCN(C(=O)c2[nH]cnc2C(=O)NCCCCCNC(=O)OC(C)(C)C)CC1	3.25%	1.03 µM [falling, full curve, poor fit]	–
CN(C(=O)CSc1nnc(-c2cccnc2)o1)C1CCCCC1	-0.501%	1.64 µM [falling, single point]	–
COc1ccc(CCN2C(=S)N(C)C(=O)C2CC(=O)Nc2ccc(F)cc2)cc1 (stereo not drawn)	14.4%	0.58 µM [falling, single point]	0.259 µM [rising, full curve, poor fit]
CC1CC(C)CN(CCCNC(=O)C2CCN(c3ncnc4c3sc3cccc(F)c34)CC2)C1 (stereo not drawn)	18.6%	29.1 µM [rising, single point]	–
COc1ccc(C)cc1NC(=O)c1ccc(N(C)S(C)(=O)=O)cc1	171%	5.17 µM [rising, single point]	20.6 µM [rising, single point]
Cc1ccccc1Nc1scc(-c2ccc(Cl)cc2)[n+]1-c1ccccc1C	-12.5%	–	4.11 µM [rising, partial curve, poor fit]
CC(=O)C1C(c2cccc(F)c2)NC(=O)NC1(O)C(F)(F)F (stereo not drawn)	-23.7%	–	0.58 µM [falling, full curve, poor fit]
CC1(C)Cc2c(sc3c2C(=O)N(c2ccccc2)C2=NCCN23)CS1	-16.7%	4.61 µM [falling, single point]	0.164 µM [falling, full curve, poor fit]
N#Cc1cc2c([nH]c1=O)CCCC2	-6.53%	4.11 µM [rising, full curve, poor fit]	–
Fc1ccc(Oc2cnns2)cc1	-60.9%	–	–
CN(C)c1ccc2nc3c(=O)[nH]c(=O)nc-3n(CC(O)C(O)C(O)CO)c2c1 (stereo not drawn)	-88.9%	–	–
COC(=O)C1=C(CN2CCN(C)CC2)NC(=O)NC1c1cc(C)ccc1C (stereo not drawn)	16%	3.26 µM [falling, partial curve]	–
O=C(O)CCCC(=O)Nc1ccc(C(=O)N2CCCCC2)c(Cl)c1	6.54%	1.16 µM [falling, full curve]	–
CCN(CC)C(=O)C1CCN(Cc2ccc(OCc3ccccc3)cc2)CC1	22.1%	29.1 µM [rising, single point]	–

SMILES	cell number change	AC50 [1]	AC50 [2]
CCCCC1CCC(C(=O)Nc2ccc(S(=O)(=O)Nc3nccs3)cc2)CC1 (stereo not drawn)	-3.54%	–	–
O=C(c1ccccc1)c1ccc(OCCCN2CCCCC2)cc1	–	6.51 µM [falling, single point]	–
C=CCc1cccc2cc(C(=O)O)c(=O)oc12	-1.41%	0.103 µM [falling, partial curve, poor fit]	–
O=C1C[C@@H](c2ccc(O[C@@H]3O[C@H](CO)[C@@H](O)[C@H](O)[C@H]3O)cc2)Oc2cc(O)ccc21	6.26%	9.2 µM [rising, partial curve, poor fit]	–
CCCCOc1nc2ccccc2nc1C(C#N)C(=O)NC1CCCCC1 (stereo not drawn)	-16.5%	–	0.116 µM [falling, full curve, poor fit]
Cc1cccc(Nc2nc(N3CCCCC3)nc(N3CCCCC3)n2)c1	16.9%	2.91 µM [rising, partial curve, poor fit]	–
Cc1cccnc1NC(=O)CNC(=O)c1ccccc1	9.92%	0.0651 µM [rising, full curve, poor fit]	–
C=CCc1cc(/C=N/NC(=O)CSc2nnc(CCCc3ccc(OC)cc3)o2)cc(OC)c1O	-53.2%	–	23.1 µM [falling, partial curve, poor fit]
N#CC1=C(SCC(=O)c2ccc(Br)cc2)NC2=C(C(=O)CCC2)C1c1ccco1 (stereo not drawn)	-20%	0.517 µM [rising, full curve]	–
COc1ccc(N2CCN(C(=S)NCc3ccccc3)CC2)cc1	40.2%	6.51 µM [falling, single point]	25.9 µM [rising, single point]
O=C(NCCN1CCOCC1)c1csc2c1CCCCC2	2.61%	16.4 µM [rising, partial curve, poor fit]	–
CC1CCN(S(=O)(=O)c2cn(CC(=O)Nc3ccc(C#N)cc3)cn2)CC1	-7.67%	–	–
O=C(Nn1c(-c2ccncc2)nc2ccccc2c1=O)c1ccccc1Br	24.3%	–	–
COc1cc2cc(CN(Cc3cccs3)C(=S)Nc3ccccc3)c(=O)[nH]c2cc1OC	16.9%	5.17 µM [rising, single point]	6.51 µM [rising, partial curve, poor fit]
COc1ccc(C2CC(c3cccs3)=NN2S(C)(=O)=O)cc1 (stereo not drawn)	-1.15%	0.13 µM [falling, full curve, poor fit]	–
Oc1ccc2ccccc2c1/C=N/Nc1ccccc1	-6.98%	29.1 µM [rising, single point]	–
N#CCSc1ccc2nc(-c3ccccc3)cn2n1	16.2%	–	–
Cc1cc(C)cc(NC(=O)NCc2c(-c3ccccc3)noc2C)c1	-34.5%	7.31 µM [falling, partial curve]	6.51 µM [falling, partial curve, poor fit]
O=C(N1CCOCC1)C(F)(F)C(=O)N1CCOCC1	-13.8%	23.1 µM [falling, single point]	–
COc1cccc(CNC(=O)N2CCN(c3ccccc3C)CC2)c1	22.6%	29.1 µM [rising, partial curve]	0.013 µM [rising, full curve, poor fit]

Part of the list above in order of formula weight, falling:
SMILES	cell number change	AC50 [1]	AC50 [2]
C=CCc1cc(/C=N/NC(=O)CSc2nnc(CCCc3ccc(OC)cc3)o2)cc(OC)c1O	-53.2%	–	23.1 µM [falling, partial curve, poor fit]
COc1cc2cc(CN(Cc3cccs3)C(=S)Nc3ccccc3)c(=O)[nH]c2cc1OC	16.9%	5.17 µM [rising, single point]	6.51 µM [rising, partial curve, poor fit]
O=C(Nn1c(-c2ccncc2)nc2ccccc2c1=O)c1ccccc1Br	24.3%	–	–
O=C1C[C@@H](c2ccc(O[C@@H]3O[C@H](CO)[C@@H](O)[C@H](O)[C@H]3O)cc2)Oc2cc(O)ccc21	6.26%	9.2 µM [rising, partial curve, poor fit]	–
CC1CCN(S(=O)(=O)c2cn(CC(=O)Nc3ccc(C#N)cc3)cn2)CC1	-7.67%	–	–
CCN(CC)C(=O)C1CCN(Cc2ccc(OCc3ccccc3)cc2)CC1	22.1%	29.1 µM [rising, single point]	–
CCCCOc1nc2ccccc2nc1C(C#N)C(=O)NC1CCCCC1 (stereo not drawn)	-16.5%	–	0.116 µM [falling, full curve, poor fit]
O=C(O)CCCC(=O)Nc1ccc(C(=O)N2CCCCC2)c(Cl)c1	6.54%	1.16 µM [falling, full curve]	–
Cc1cccc(Nc2nc(N3CCCCC3)nc(N3CCCCC3)n2)c1	16.9%	2.91 µM [rising, partial curve, poor fit]	–
COc1ccc(N2CCN(C(=S)NCc3ccccc3)CC2)cc1	40.2%	6.51 µM [falling, single point]	25.9 µM [rising, single point]
COc1cccc(CNC(=O)N2CCN(c3ccccc3C)CC2)c1	22.6%	29.1 µM [rising, partial curve]	0.013 µM [rising, full curve, poor fit]
COc1ccc(C2CC(c3cccs3)=NN2S(C)(=O)=O)cc1 (stereo not drawn)	-1.15%	0.13 µM [falling, full curve, poor fit]	–
Cc1cc(C)cc(NC(=O)NCc2c(-c3ccccc3)noc2C)c1	-34.5%	7.31 µM [falling, partial curve]	6.51 µM [falling, partial curve, poor fit]
O=C(c1ccccc1)c1ccc(OCCCN2CCCCC2)cc1	–	6.51 µM [falling, single point]	–
O=C(NCCN1CCOCC1)c1csc2c1CCCCC2	2.61%	16.4 µM [rising, partial curve, poor fit]	–
O=C(N1CCOCC1)C(F)(F)C(=O)N1CCOCC1	-13.8%	23.1 µM [falling, single point]	–
N#CCSc1ccc2nc(-c3ccccc3)cn2n1	16.2%	–	–
Oc1ccc2ccccc2c1/C=N/Nc1ccccc1	-6.98%	29.1 µM [rising, single point]	–
C=CCc1cccc2cc(C(=O)O)c(=O)oc12	-1.41%	0.103 µM [falling, partial curve, poor fit]	–
